In patent US9888688B2, “Tetrazolinone compounds and applications thereof” (Sumitomo Chemical Company, Limited, priority 2013, dated 2018):
Like-named read-outs stand apart in the source and are kept apart here. Some of these results come from one statement about several compounds together.

Key:
[1] = tested on: wheat rust fungus (Puccinia recondita); test: Wheat rust control test, foliar spray on wheat (Test Examples 3, 13, 14); assay type: in vivo; conditions: wheat SHIROGANE, inoculated 5 days after spraying
[2] = tested on: rice blast fungus (Magnaporthe grisea); assay type: in vivo; conditions: rice NIHONBARE, 6 days

CCc1cccc(-n2nnn(C)c2=O)c1COc1ccc(-c2cccnc2)cc1C [Present Compound 62]
area of lesion spots relative to that on an untreated plant ([1]; 200 ppm foliar spray): ≤ 30% | lesion area with respect to the lesion area on the non-treated plant ([2]; 200 ppm foliar spray): ≤ 30%

Cc1cc(-c2cccnc2)ccc1OCc1c(C2CC2)cccc1-n1nnn(C)c1=O [Present Compound 64]
area of lesion spots relative to that on an untreated plant ([1]; 200 ppm foliar spray): ≤ 30% | lesion area with respect to the lesion area on the non-treated plant ([2]; 200 ppm foliar spray): ≤ 30%

CCc1cccc(-n2nnn(C)c2=O)c1COc1ccc(-c2cnccc2Cl)cc1C [Present Compound 68]
area of lesion spots relative to that on an untreated plant ([1]; 200 ppm foliar spray): ≤ 30% | lesion area with respect to the lesion area on the non-treated plant ([2]; 200 ppm foliar spray): ≤ 30%

Cc1cc(-c2cnccc2C)ccc1OCc1c(C)cccc1-n1nnn(C)c1=O [Present Compound 71]
area of lesion spots relative to that on an untreated plant ([1]; 200 ppm foliar spray): ≤ 30% | lesion area with respect to the lesion area on the non-treated plant ([2]; 200 ppm foliar spray): ≤ 30%

COc1cccc(-n2nnn(C)c2=O)c1COc1ccc(-c2ccc(C)nc2)cc1C [Present Compound 73]
area of lesion spots relative to that on an untreated plant ([1]; 200 ppm foliar spray): ≤ 30% | lesion area with respect to the lesion area on the non-treated plant ([2]; 200 ppm foliar spray): ≤ 30% | lesion area with respect to the lesion area on the non-treated plant ([2]; 500 ppm foliar spray): ≤ 30%

Cc1ccc(-c2ccc(OCc3c(Cl)cccc3-n3nnn(C)c3=O)c(C)c2)cn1 [Present Compound 74]
area of lesion spots relative to that on an untreated plant ([1]; 200 ppm foliar spray): ≤ 30% | lesion area with respect to the lesion area on the non-treated plant ([2]; 200 ppm foliar spray): ≤ 30%

Cc1cc(-c2ncccn2)ccc1OCc1c(C)cccc1-n1nnn(C)c1=O [Present Compound 83]
area of lesion spots relative to that on an untreated plant ([1]; 200 ppm foliar spray): ≤ 30% | lesion area with respect to the lesion area on the non-treated plant ([2]; 200 ppm foliar spray): ≤ 30% | lesion area with respect to the lesion area on the non-treated plant ([2]; 500 ppm foliar spray): ≤ 30%

CCc1cccc(-n2nnn(C)c2=O)c1COc1ccc(-c2ncccn2)cc1C [Present Compound 84]
area of lesion spots relative to that on an untreated plant ([1]; 200 ppm foliar spray): ≤ 30% | lesion area with respect to the lesion area on the non-treated plant ([2]; 200 ppm foliar spray): ≤ 30% | lesion area with respect to the lesion area on the non-treated plant ([2]; 500 ppm foliar spray): ≤ 30%

Cc1cc(-c2ncccn2)ccc1OCc1c(C2CC2)cccc1-n1nnn(C)c1=O [Present Compound 85]
area of lesion spots relative to that on an untreated plant ([1]; 200 ppm foliar spray): ≤ 30% | lesion area with respect to the lesion area on the non-treated plant ([2]; 200 ppm foliar spray): ≤ 30% | lesion area with respect to the lesion area on the non-treated plant ([2]; 500 ppm foliar spray): ≤ 30%

Cc1cc(-c2ncccn2)ccc1OCc1ccccc1-n1nnn(C)c1=O [Present Compound 87]
area of lesion spots relative to that on an untreated plant ([1]; 200 ppm foliar spray): ≤ 30% | lesion area with respect to the lesion area on the non-treated plant ([2]; 200 ppm foliar spray): ≤ 30%

Cc1cc(-c2ccncn2)ccc1OCc1c(C)cccc1-n1nnn(C)c1=O [Present Compound 88]
area of lesion spots relative to that on an untreated plant ([1]; 200 ppm foliar spray): ≤ 30% | lesion area with respect to the lesion area on the non-treated plant ([2]; 200 ppm foliar spray): ≤ 30%

COc1cccc(-n2nnn(C)c2=O)c1COc1ccc(-c2nccc(C)n2)cc1C [Present Compound 90]
area of lesion spots relative to that on an untreated plant ([1]; 500 ppm foliar spray): ≤ 30% | lesion area with respect to the lesion area on the non-treated plant ([2]; 500 ppm foliar spray): ≤ 30%

Cc1ccnc(-c2ccc(OCc3c(C)cccc3-n3nnn(C)c3=O)c(C)c2)n1 [Present Compound 91]
area of lesion spots relative to that on an untreated plant ([1]; 200 ppm foliar spray): ≤ 30% | lesion area with respect to the lesion area on the non-treated plant ([2]; 200 ppm foliar spray): ≤ 30% | lesion area with respect to the lesion area on the non-treated plant ([2]; 500 ppm foliar spray): ≤ 30%

Cc1ccnc(-c2ccc(OCc3c(C4CC4)cccc3-n3nnn(C)c3=O)c(C)c2)n1 [Present Compound 92]
area of lesion spots relative to that on an untreated plant ([1]; 200 ppm foliar spray): ≤ 30% | area of lesion spots relative to that on an untreated plant ([1]; 500 ppm foliar spray): ≤ 30% | lesion area with respect to the lesion area on the non-treated plant ([2]; 200 ppm foliar spray): ≤ 30%

CSc1cccc(-n2nnn(C)c2=O)c1COc1ccc(-c2nccc(C)n2)cc1C [Present Compound 97]
area of lesion spots relative to that on an untreated plant ([1]; 200 ppm foliar spray): ≤ 30% | lesion area with respect to the lesion area on the non-treated plant ([2]; 200 ppm foliar spray): ≤ 30%

Cc1cc(-c2cnccn2)ccc1OCc1c(C)cccc1-n1nnn(C)c1=O [Present Compound 99]
area of lesion spots relative to that on an untreated plant ([1]; 200 ppm foliar spray): ≤ 30% | lesion area with respect to the lesion area on the non-treated plant ([2]; 200 ppm foliar spray): ≤ 30% | lesion area with respect to the lesion area on the non-treated plant ([2]; 500 ppm foliar spray): ≤ 30%

Cc1cccc(-c2ccc(OCc3c(C)cccc3-n3nnn(C)c3=O)c(C3CC3)c2)n1 [Present Compound 100, 1-{2-[2-cyclopropyl-4-(6-methylpyridin-2-yl)phenoxymethyl]-3-methylphenyl}-4-methyl-1,4-dihydrotetrazol-5-one]
area of lesion spots relative to that on an untreated plant ([1]; 200 ppm foliar spray): ≤ 30% | lesion area with respect to the lesion area on the non-treated plant ([2]; 200 ppm foliar spray): ≤ 30%

CCc1cc(-c2cccc(C)n2)ccc1OCc1c(C)cccc1-n1nnn(C)c1=O [Present Compound 101]
area of lesion spots relative to that on an untreated plant ([1]; 200 ppm foliar spray): ≤ 30% | lesion area with respect to the lesion area on the non-treated plant ([2]; 200 ppm foliar spray): ≤ 30%

Cc1cc(-c2cccc(C#N)n2)ccc1OCc1c(C)cccc1-n1nnn(C)c1=O [Present Compound 114, 1-{3-methyl-2-[2-methyl-4-(6-cyanopyridin-2-yl)-phenoxymethyl]-phenyl}-4-methyl-1,4-dihydrotetrazol-5-one]
area of lesion spots relative to that on an untreated plant ([1]; 200 ppm foliar spray): ≤ 30% | lesion area with respect to the lesion area on the non-treated plant ([2]; 200 ppm foliar spray): ≤ 30%

CCc1cccc(-n2nnn(C)c2=O)c1COc1ccc(-c2cccc(C#N)n2)cc1C [Present Compound 115, 1-{3-ethyl-2-[2-methyl-4-(6-cyanopyridin-3-yl)-phenoxymethyl]-phenyl}-4-methyl-1,4-dihydrotetrazol-5-one]
area of lesion spots relative to that on an untreated plant ([1]; 200 ppm foliar spray): ≤ 30% | lesion area with respect to the lesion area on the non-treated plant ([2]; 200 ppm foliar spray): ≤ 30% | lesion area with respect to the lesion area on the non-treated plant ([2]; 500 ppm foliar spray): ≤ 30%

Cc1cc(-c2cccc(F)n2)ccc1OCc1c(C)cccc1-n1nnn(C)c1=O [Present Compound 121]
area of lesion spots relative to that on an untreated plant ([1]; 200 ppm foliar spray): ≤ 30% | lesion area with respect to the lesion area on the non-treated plant ([2]; 200 ppm foliar spray): ≤ 30%

CCCc1cccc(-c2ccc(OCc3c(C)cccc3-n3nnn(C)c3=O)c(C)c2)n1 [Present Compound 126, 1-{3-methyl-2-[2-methyl-4-(6-propylpyridin-3-yl)-phenoxymethyl]-phenyl}-4-methyl-1,4-dihydrotetrazol-5-one]
area of lesion spots relative to that on an untreated plant ([1]; 200 ppm foliar spray): ≤ 30% | lesion area with respect to the lesion area on the non-treated plant ([2]; 200 ppm foliar spray): ≤ 30% | lesion area with respect to the lesion area on the non-treated plant ([2]; 500 ppm foliar spray): ≤ 30%

CCc1cccc(-n2nnn(C)c2=O)c1COc1ccc(-c2cccc(C)n2)cc1C(F)(F)F [Present Compound 128]
area of lesion spots relative to that on an untreated plant ([1]; 200 ppm foliar spray): ≤ 30% | lesion area with respect to the lesion area on the non-treated plant ([2]; 200 ppm foliar spray): ≤ 30%

Cc1cccc(-c2ccc(OCc3c(C4CC4)cccc3-n3nnn(C)c3=O)c(C(F)(F)F)c2)n1 [Present Compound 129]
area of lesion spots relative to that on an untreated plant ([1]; 200 ppm foliar spray): ≤ 30% | lesion area with respect to the lesion area on the non-treated plant ([2]; 200 ppm foliar spray): ≤ 30%

CCc1cccc(-c2ccc(OCc3c(C)cccc3-n3nnn(C)c3=O)c(C(F)(F)F)c2)n1 [Present Compound 131]
area of lesion spots relative to that on an untreated plant ([1]; 200 ppm foliar spray): ≤ 30% | lesion area with respect to the lesion area on the non-treated plant ([2]; 200 ppm foliar spray): ≤ 30% | lesion area with respect to the lesion area on the non-treated plant ([2]; 500 ppm foliar spray): ≤ 30%

CCc1cccc(-c2ccc(OCc3c(CC)cccc3-n3nnn(C)c3=O)c(C(F)(F)F)c2)n1 [Present Compound 132]
area of lesion spots relative to that on an untreated plant ([1]; 200 ppm foliar spray): ≤ 30% | lesion area with respect to the lesion area on the non-treated plant ([2]; 200 ppm foliar spray): ≤ 30% | lesion area with respect to the lesion area on the non-treated plant ([2]; 500 ppm foliar spray): ≤ 30%

CCc1cccc(-c2ccc(OCc3c(C4CC4)cccc3-n3nnn(C)c3=O)c(C(F)(F)F)c2)n1 [Present Compound 133]
area of lesion spots relative to that on an untreated plant ([1]; 50 ppm foliar spray): ≤ 30% | lesion area with respect to the lesion area on the non-treated plant ([2]; 200 ppm foliar spray): ≤ 30%

Cc1ccnc(-c2ccc(OCc3c(C4CC4)cccc3-n3nnn(C)c3=O)c(C(F)(F)F)c2)n1 [Present Compound 135]
area of lesion spots relative to that on an untreated plant ([1]; 200 ppm foliar spray): ≤ 30% | lesion area with respect to the lesion area on the non-treated plant ([2]; 200 ppm foliar spray): ≤ 30%

Cc1ccnc(-c2ccc(OCc3c(C)cccc3-n3nnn(C)c3=O)c(C(F)(F)F)c2)n1 [Present Compound 136]
area of lesion spots relative to that on an untreated plant ([1]; 200 ppm foliar spray): ≤ 30% | lesion area with respect to the lesion area on the non-treated plant ([2]; 200 ppm foliar spray): ≤ 30% | lesion area with respect to the lesion area on the non-treated plant ([2]; 500 ppm foliar spray): ≤ 30%

CCc1cccc(-n2nnn(C)c2=O)c1COc1ccc(-c2nccc(C)n2)cc1C(F)(F)F [Present Compound 138]
area of lesion spots relative to that on an untreated plant ([1]; 200 ppm foliar spray): ≤ 30% | area of lesion spots relative to that on an untreated plant ([1]; 500 ppm foliar spray): ≤ 30% | lesion area with respect to the lesion area on the non-treated plant ([2]; 200 ppm foliar spray): ≤ 30%

CCc1ccnc(-c2ccc(OCc3c(C)cccc3-n3nnn(C)c3=O)c(C)c2)n1 [Present Compound 139]
area of lesion spots relative to that on an untreated plant ([1]; 200 ppm foliar spray): ≤ 30% | lesion area with respect to the lesion area on the non-treated plant ([2]; 200 ppm foliar spray): ≤ 30% | lesion area with respect to the lesion area on the non-treated plant ([2]; 500 ppm foliar spray): ≤ 30%

CCc1ccnc(-c2ccc(OCc3c(Cl)cccc3-n3nnn(C)c3=O)c(C)c2)n1 [Present Compound 140]
area of lesion spots relative to that on an untreated plant ([1]; 200 ppm foliar spray): ≤ 30% | lesion area with respect to the lesion area on the non-treated plant ([2]; 200 ppm foliar spray): ≤ 30%

CCc1ccnc(-c2ccc(OCc3ccccc3-n3nnn(C)c3=O)c(C)c2)n1 [Present Compound 141]
area of lesion spots relative to that on an untreated plant ([1]; 200 ppm foliar spray): ≤ 30% | lesion area with respect to the lesion area on the non-treated plant ([2]; 200 ppm foliar spray): ≤ 30%

CCc1ccnc(-c2ccc(OCc3c(CC)cccc3-n3nnn(C)c3=O)c(C)c2)n1 [Present Compound 142]
area of lesion spots relative to that on an untreated plant ([1]; 200 ppm foliar spray): ≤ 30% | lesion area with respect to the lesion area on the non-treated plant ([2]; 200 ppm foliar spray): ≤ 30% | lesion area with respect to the lesion area on the non-treated plant ([2]; 500 ppm foliar spray): ≤ 30%

CCc1ccnc(-c2ccc(OCc3c(C4CC4)cccc3-n3nnn(C)c3=O)c(C)c2)n1 [Present Compound 143]
area of lesion spots relative to that on an untreated plant ([1]; 200 ppm foliar spray): ≤ 30% | lesion area with respect to the lesion area on the non-treated plant ([2]; 200 ppm foliar spray): ≤ 30% | lesion area with respect to the lesion area on the non-treated plant ([2]; 500 ppm foliar spray): ≤ 30%

Cc1ccc(Cl)c(-c2ccc(OCc3c(C)cccc3-n3nnn(C)c3=O)c(C)c2)n1 [Present Compound 145]
area of lesion spots relative to that on an untreated plant ([1]; 500 ppm foliar spray): ≤ 30% | lesion area with respect to the lesion area on the non-treated plant ([2]; 500 ppm foliar spray): ≤ 30%

Cc1ccc(C)c(-c2ccc(OCc3c(C)cccc3-n3nnn(C)c3=O)c(C)c2)n1 [Present Compound 147]
area of lesion spots relative to that on an untreated plant ([1]; 200 ppm foliar spray): ≤ 30% | lesion area with respect to the lesion area on the non-treated plant ([2]; 200 ppm foliar spray): ≤ 30%

C=C(C)c1cccc(-c2ccc(OCc3c(C)cccc3-n3nnn(C)c3=O)c(C)c2)n1 [Present Compound 148]
area of lesion spots relative to that on an untreated plant ([1]; 200 ppm foliar spray): ≤ 30% | lesion area with respect to the lesion area on the non-treated plant ([2]; 200 ppm foliar spray): ≤ 30% | lesion area with respect to the lesion area on the non-treated plant ([2]; 500 ppm foliar spray): ≤ 30%
